This is an account of results in PMC10566475 (Chemical Science, 2023).

Plain letter strings leave the end groups untold. HELM strings list residues between dots; [ac] is acetyl, [am] amide, other brackets name non-standard units.

The first data set in a line: general procedure: Fmoc solid-phase peptide synthesis; Rink amide resin (0.308 mmol/g loading); DIC; HATU/DIPEA. Particulars: conjugation step, thioether ring.
Turning to C5DPETGEC5L clicked with H, the “final HPLC purity” value was 97%.
Same read-out and setting: next, C5LQLDPETGEC5L clicked with H: 96%; C5DPETGEC5L clicked with G: 93%.
Consider C5LQLDPETGEC5L clicked with G, for which the “final HPLC purity” value was 90%.

The same data set, now with this note: cyclisation step.
As for “PEPTIDE1{[ac].C.Q.L.D.P.E.T.G.E.C.L.[am]}|CHEM1{[StapleA]}$PEPTIDE1,CHEM1,2:R3-1:R1|PEPTIDE1,CHEM1,11:R3-1:R2$$$V2.0”, the “final HPLC purity” value stood at 88%.
Same read-out and setting: then “PEPTIDE1{[ac].L.Q.C.D.P.E.T.G.E.C.L.[am]}|CHEM1{[StapleC]}$PEPTIDE1,CHEM1,4:R3-1:R1|PEPTIDE1,CHEM1,11:R3-1:R2$$$V2.0”, with 85%; and AzaLQLDPETGEAzaL, with 98%; and “PEPTIDE1{[ac].C.L.Q.L.[D(OMe)].P.[E(OMe)].T.G.[E(OMe)].C.L.[am]}|CHEM1{[DVP-F]}$PEPTIDE1,CHEM1,2:R3-1:R1|PEPTIDE1,CHEM1,12:R3-1:R2$$$V2.0”, with 99%.
Regarding C5DPETGEC5L, the “final HPLC purity” value worked out at 54%.
For the substance “PEPTIDE1{[ac].L.Q.C.D.P.E.T.G.E.C.L.[am]}|CHEM1{[StapleB]}$PEPTIDE1,CHEM1,4:R3-1:R1|PEPTIDE1,CHEM1,11:R3-1:R2$$$V2.0”, the “final HPLC purity” value is on record as 96%.
The same measure, in the same setting: next, “PEPTIDE1{[ac].L.Q.C.D.P.E.T.G.E.C.L.[am]}|CHEM1{[StapleA]}$PEPTIDE1,CHEM1,4:R3-1:R1|PEPTIDE1,CHEM1,11:R3-1:R2$$$V2.0”: 98%; “PEPTIDE1{[ac].C.Q.L.D.P.E.T.G.E.C.L.[am]}|CHEM1{[StapleB]}$PEPTIDE1,CHEM1,2:R3-1:R1|PEPTIDE1,CHEM1,11:R3-1:R2$$$V2.0”: above 99%.

The data set is the same for the next values; noted with them: cyclisation step, thioether ring, sequence written open.
Consider CFLQLD(OMe)PE(OMe)TGECFL, for which the “final HPLC purity” value came out at 88%.
Turning to CDQLDPETGECDL, the “final HPLC purity” value turned out to be 99%.
With CFLQLDPE(OMe)TGE(OMe)CFL, the “final HPLC purity” value is recorded as 96%.
Regarding CDLQLDPETGECDL, the “final HPLC purity” value worked out at 97%.
On the same count and under the same terms, then CFLQLD(OMe)PETE(OMe)CFL, with 98%.
Still for that read-out and setting: then CCQLDPETGECCL, with 99%.
In the case of CFLQLDPETGECFL, the “final HPLC purity” value is recorded as 93%.
On the same count and under the same terms, next, LQCDDPETGECDL: 98%.

Staying with this data set, now noted: whole synthesis.
LQLDPETGEFL: the “final HPLC purity” value turned out to be 96%.
In the case of N3-Apa-GWWG-(D)R(D)R(D)R -NH2, the “final HPLC purity” value came out at 88%.
With LCEGTEPDCQL, the “final HPLC purity” value was determined as 90%.
CLQLD(OMe)PE(OMe)TGECL: the “final HPLC purity” value was determined as 95%.
On the same count and under the same terms, next, LCEGTEPDLQC: above 99%; “PEPTIDE1{[ac].C.L.Q.L.D.P.E.T.G.E.C.L.[am]}$$$$V2.0”: 78%; “PEPTIDE1{[ac].C.D.P.E.T.G.E.C.L.[am]}$$$$V2.0”: 98%.
The same measure, in the same setting: then CLQLD(OMe)PE(OMe)TGE(OMe)CL, with 87%; and CLQLD(OMe)PETGE(OMe)CL, with 96%.
The same measure, in the same setting: next, CLQLDPE(OMe)TGE(OMe)CL: 95%; “PEPTIDE1{[ac].L.Q.C.D.P.E.T.G.E.C.L.[am]}$$$$V2.0”: 94%.
For “PEPTIDE1{[ac].C.Q.L.D.P.E.T.G.E.C.L.[am]}$$$$V2.0”, the “final HPLC purity” value was 85%.
